# Measurements reported in PMC11053755.
# No constants are given. Whether binding was seen depends on the method and setting.
# Target: T1, OsSHMT1 (rice serine hydroxymethyltransferase 1) (rice (Oryza sativa)) (UniProt Q10D68)
# T1 sequence: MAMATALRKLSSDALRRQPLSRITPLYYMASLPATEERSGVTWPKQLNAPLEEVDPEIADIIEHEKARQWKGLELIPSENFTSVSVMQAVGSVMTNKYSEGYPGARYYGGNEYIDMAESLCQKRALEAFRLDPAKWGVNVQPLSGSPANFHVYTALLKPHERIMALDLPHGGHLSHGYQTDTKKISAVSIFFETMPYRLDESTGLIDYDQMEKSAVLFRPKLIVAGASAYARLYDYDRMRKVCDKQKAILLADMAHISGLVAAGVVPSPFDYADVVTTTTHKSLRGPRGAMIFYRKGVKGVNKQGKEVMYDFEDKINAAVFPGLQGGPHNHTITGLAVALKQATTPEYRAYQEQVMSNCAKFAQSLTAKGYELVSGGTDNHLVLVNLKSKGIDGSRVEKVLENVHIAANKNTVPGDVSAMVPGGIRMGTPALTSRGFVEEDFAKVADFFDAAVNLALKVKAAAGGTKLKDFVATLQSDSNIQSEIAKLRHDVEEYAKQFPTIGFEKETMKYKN
# Assay: two-hybrid; GAL4 system; OsSHMT coding regions in pGBKT7 (BD) and pGADT7 (AD), co-transfected into yeast AH109; grown on SD/-Leu/-Trp, then SD/-Leu/-Trp/-His/-Ade to verify interactions
substance,measurement,value
OsSHMT3 (rice serine hydroxymethyltransferase 3) (enzyme),binding,no binding
